In the supplement of paper PMC10849652:
The list shows a part of the results.

Protein sequences, listed by entry. Tags and fused reporters are not part of them. Lines headed by an entry give the natural chain unless they say otherwise; changes in a name come on top.
UniProt Q92620: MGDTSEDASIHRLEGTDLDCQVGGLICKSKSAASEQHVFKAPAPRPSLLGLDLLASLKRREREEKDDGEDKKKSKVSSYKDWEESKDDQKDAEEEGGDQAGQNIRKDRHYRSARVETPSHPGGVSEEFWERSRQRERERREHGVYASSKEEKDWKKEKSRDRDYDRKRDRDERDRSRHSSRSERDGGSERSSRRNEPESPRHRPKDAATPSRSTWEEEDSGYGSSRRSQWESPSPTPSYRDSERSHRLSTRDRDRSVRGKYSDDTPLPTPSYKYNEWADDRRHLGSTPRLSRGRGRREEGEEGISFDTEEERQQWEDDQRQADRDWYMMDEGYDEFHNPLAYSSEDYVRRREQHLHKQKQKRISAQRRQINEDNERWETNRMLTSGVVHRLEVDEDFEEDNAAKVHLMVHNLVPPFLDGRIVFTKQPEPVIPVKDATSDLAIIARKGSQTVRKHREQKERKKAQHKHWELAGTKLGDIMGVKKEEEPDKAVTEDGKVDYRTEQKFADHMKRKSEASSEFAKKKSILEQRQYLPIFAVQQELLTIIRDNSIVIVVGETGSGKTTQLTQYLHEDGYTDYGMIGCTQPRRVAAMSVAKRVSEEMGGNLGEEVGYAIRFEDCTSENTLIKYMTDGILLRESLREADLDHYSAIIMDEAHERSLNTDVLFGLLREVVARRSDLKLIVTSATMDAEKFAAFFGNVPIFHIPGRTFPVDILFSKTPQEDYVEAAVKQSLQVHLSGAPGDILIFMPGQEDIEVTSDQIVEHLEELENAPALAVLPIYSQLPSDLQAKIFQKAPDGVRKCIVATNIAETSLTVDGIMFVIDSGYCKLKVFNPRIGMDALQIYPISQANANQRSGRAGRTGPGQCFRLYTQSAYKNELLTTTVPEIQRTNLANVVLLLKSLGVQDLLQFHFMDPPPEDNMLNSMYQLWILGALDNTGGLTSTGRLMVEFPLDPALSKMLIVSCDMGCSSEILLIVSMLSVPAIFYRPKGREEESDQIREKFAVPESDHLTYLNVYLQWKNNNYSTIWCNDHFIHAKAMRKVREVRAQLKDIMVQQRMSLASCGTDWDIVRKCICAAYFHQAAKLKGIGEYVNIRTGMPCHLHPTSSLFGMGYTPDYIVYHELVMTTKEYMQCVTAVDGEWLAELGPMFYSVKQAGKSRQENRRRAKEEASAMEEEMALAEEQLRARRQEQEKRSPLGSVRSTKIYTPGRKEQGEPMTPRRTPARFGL
UniProt Q8NHQ9: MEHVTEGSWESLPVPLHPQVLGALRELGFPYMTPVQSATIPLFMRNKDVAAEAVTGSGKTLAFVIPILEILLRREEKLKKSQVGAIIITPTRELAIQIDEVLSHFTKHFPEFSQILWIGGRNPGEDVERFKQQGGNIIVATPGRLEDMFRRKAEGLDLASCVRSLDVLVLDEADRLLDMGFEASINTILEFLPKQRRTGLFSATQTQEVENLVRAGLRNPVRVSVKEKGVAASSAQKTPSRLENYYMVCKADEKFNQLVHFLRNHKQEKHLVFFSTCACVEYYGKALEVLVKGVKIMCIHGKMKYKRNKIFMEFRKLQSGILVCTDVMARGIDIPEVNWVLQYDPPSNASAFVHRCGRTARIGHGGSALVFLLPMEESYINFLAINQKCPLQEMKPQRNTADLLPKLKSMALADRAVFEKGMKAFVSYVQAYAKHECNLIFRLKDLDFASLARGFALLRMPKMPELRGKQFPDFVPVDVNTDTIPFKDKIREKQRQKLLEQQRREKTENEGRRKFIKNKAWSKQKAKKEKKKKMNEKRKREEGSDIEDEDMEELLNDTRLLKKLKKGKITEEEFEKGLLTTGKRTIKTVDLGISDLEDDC
UniProt Q9BTC0, whole entry, looked up: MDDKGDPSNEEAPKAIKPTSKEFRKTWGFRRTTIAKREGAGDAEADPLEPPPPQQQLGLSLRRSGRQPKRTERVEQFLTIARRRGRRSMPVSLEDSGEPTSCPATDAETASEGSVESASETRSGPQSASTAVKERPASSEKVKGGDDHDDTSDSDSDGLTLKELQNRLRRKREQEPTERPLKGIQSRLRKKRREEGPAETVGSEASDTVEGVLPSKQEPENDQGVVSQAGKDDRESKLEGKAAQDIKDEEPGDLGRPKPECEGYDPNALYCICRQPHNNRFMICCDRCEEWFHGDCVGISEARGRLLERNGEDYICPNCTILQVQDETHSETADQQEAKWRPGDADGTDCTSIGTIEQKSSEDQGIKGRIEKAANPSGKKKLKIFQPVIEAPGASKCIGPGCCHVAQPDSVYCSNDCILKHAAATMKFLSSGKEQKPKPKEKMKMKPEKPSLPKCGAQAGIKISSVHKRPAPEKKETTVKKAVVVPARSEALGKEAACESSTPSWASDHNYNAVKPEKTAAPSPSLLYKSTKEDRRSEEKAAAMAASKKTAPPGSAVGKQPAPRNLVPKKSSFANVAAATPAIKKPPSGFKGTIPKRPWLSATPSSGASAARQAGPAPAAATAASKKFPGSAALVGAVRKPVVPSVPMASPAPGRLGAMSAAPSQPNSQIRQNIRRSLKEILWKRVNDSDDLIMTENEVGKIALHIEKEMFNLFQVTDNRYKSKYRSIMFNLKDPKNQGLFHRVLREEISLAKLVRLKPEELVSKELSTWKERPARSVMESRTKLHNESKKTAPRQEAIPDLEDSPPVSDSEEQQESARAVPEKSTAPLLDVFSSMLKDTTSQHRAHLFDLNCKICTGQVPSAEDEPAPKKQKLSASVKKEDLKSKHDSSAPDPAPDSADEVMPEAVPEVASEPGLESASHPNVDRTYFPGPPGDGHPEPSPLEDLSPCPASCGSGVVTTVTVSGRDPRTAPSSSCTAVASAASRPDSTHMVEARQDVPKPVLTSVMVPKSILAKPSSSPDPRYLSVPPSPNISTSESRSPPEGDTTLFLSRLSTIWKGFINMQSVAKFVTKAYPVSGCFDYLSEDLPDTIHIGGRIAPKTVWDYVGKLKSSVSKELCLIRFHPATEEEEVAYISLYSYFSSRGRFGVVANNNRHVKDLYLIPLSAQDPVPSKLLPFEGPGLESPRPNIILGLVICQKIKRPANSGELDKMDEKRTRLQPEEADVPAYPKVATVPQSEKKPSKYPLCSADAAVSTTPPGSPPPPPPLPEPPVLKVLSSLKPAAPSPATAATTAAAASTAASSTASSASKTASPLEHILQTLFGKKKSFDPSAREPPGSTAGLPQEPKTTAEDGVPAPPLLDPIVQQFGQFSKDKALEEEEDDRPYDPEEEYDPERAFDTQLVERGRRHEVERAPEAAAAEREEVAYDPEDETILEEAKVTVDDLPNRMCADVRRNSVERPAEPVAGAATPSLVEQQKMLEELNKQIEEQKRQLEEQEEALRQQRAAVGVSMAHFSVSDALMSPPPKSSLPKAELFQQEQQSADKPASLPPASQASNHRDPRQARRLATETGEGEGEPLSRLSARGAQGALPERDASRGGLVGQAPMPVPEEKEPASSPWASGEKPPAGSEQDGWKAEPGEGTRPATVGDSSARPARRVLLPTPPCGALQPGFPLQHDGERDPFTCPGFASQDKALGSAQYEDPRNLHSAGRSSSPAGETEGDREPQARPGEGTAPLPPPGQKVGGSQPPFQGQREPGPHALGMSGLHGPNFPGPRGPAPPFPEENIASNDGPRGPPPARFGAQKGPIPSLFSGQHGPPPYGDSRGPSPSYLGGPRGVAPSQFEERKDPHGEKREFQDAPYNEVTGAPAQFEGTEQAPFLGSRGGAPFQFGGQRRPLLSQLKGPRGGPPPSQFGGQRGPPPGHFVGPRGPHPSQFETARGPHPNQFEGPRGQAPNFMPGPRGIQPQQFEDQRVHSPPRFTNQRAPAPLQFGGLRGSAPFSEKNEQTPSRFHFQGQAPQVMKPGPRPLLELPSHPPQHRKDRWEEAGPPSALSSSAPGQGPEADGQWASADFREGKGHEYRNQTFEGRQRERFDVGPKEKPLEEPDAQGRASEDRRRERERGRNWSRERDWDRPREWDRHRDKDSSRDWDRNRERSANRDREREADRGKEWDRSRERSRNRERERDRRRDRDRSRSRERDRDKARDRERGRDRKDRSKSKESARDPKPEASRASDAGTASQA
UniProt O60884: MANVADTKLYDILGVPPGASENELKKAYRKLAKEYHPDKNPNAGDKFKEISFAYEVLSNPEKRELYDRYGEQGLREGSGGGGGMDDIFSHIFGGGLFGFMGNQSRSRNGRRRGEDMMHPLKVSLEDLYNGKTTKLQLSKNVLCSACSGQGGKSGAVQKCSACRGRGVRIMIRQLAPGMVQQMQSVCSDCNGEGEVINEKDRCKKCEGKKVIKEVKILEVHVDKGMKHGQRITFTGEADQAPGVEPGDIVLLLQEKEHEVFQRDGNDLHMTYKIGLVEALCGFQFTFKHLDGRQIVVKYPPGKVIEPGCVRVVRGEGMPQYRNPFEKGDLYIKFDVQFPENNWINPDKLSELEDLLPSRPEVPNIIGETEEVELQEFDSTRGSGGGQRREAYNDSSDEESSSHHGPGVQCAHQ
UniProt Q9NW81: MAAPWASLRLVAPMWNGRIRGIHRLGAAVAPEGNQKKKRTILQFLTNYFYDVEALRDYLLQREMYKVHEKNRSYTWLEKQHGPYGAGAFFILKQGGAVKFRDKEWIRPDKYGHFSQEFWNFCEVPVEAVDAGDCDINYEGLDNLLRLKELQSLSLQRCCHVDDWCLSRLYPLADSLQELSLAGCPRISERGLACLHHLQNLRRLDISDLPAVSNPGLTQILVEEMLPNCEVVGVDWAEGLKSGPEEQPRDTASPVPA
UniProt Q9BSY9: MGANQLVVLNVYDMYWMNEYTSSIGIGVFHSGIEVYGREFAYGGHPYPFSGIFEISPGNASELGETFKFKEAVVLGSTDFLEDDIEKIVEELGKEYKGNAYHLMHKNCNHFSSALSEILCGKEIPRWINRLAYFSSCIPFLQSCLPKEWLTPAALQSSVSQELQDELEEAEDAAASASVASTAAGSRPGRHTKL
UniProt Q08211, whole entry, looked up: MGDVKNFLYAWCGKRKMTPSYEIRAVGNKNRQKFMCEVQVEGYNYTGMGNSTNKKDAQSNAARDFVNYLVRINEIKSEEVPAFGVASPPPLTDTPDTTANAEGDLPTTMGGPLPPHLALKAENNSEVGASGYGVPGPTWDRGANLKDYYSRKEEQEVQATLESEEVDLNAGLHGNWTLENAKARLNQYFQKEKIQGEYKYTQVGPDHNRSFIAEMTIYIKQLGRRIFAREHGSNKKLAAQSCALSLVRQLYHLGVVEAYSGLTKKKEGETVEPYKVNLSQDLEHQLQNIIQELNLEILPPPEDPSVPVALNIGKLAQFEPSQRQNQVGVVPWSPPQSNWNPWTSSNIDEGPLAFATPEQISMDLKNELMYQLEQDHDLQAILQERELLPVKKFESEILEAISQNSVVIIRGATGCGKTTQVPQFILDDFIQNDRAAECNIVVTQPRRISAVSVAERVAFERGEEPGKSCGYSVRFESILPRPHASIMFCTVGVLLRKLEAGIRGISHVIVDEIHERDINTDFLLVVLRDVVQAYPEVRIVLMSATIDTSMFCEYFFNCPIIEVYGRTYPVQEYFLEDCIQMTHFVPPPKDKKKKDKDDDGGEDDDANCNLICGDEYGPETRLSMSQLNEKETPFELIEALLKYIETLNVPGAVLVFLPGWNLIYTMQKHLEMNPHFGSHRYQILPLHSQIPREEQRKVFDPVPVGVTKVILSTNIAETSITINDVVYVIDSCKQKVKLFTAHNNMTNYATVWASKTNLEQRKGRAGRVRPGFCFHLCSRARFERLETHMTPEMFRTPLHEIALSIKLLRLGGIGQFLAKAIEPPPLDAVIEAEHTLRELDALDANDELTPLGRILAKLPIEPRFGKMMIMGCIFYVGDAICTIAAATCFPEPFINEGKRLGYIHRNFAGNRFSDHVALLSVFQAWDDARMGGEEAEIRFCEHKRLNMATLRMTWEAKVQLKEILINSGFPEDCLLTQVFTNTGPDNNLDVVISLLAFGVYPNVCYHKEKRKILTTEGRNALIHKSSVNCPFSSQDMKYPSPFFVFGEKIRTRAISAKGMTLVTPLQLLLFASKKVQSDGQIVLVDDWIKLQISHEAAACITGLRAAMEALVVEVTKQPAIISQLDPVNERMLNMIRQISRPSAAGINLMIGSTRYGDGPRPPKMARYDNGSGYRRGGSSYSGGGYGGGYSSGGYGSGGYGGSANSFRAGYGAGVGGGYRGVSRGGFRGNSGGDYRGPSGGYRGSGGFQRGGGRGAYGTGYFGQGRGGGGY
UniProt O94760: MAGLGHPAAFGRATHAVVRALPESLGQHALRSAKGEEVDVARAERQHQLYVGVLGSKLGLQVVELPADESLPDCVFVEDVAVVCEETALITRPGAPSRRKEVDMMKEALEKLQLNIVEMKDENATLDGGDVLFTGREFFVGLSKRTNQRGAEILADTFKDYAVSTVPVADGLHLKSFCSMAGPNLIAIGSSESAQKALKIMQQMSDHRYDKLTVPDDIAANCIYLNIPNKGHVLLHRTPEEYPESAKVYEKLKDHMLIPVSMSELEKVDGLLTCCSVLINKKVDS

Each target was assayed with c1cn2cc(-c3ccc4cn[nH]c4c3)nc(Nc3ccc(N4CCOCC4)cc3)c2n1 [entospletinib] (assay: log2 fold change, soluble protein after heating vs DMSO (PISA); higher = thermal stabilisation; K562 cells, 10 uM, 30 min; active = over 0.2 and 3.5 SD of the protein, either way, in both replicates (recomputed)).
Method in brief: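 K562 cells at 2×10^6 cells/mL were given 10 μM compound for 30 min. Aliquots then went through 3 min of heating across 48°C-58°C, were pooled, and were extracted in PBS with 0.5% NP-40 at 4°C, and the supernatant after 21,000xg for 90 min was quantified by TMTpro 16plex LC-MS/MS with channel sums equalised. Thermal stability relative to control samples, from duplicates, is given as log2 fold change.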

log2 fold change, inactive:
DDX42 (UniProt Q86XP3) -0.016
DIMT1 (UniProt Q9UNQ2) 0.048
DDRGK1 (UniProt Q96HY6) 0.01
DDX39B isoform 2 (UniProt Q13838) 0.002
DDX1 (UniProt Q92499) 0.063
DHX38 (UniProt Q92620) -0.044
DDX59 (UniProt Q5T1V6) 0
DIP2B (UniProt Q9P265) -0.002
DDX55 (UniProt Q8NHQ9) 0.174
DIS3 (UniProt Q9Y2L1) -0.095
DIDO1 (UniProt Q9BTC0) 0.028
DNAJA2 (UniProt O60884) -0.079
DDX49 (UniProt Q9Y6V7) 0.112
DMAC2 isoform 4 (UniProt Q9NW81) 0.019
DHX30 isoform 2 (UniProt Q7L2E3) 0.225
DDX6 (UniProt P26196) 0.045
DESI2 (UniProt Q9BSY9) -0.023
DLAT (UniProt P10515) 0.071
DERA (UniProt Q9Y315) -0.038
DMTN (UniProt Q08495) 0.008
DNAH9 (UniProt Q9NYC9) -0.001
DDHD2 (UniProt O94830) -0.016
DHRS4 (UniProt Q9BTZ2) -0.093
DHX9 (UniProt Q08211) -0.146
DHRS4L1 (UniProt P0CG22) 0.088
DES (UniProt P17661) 0.044
DLG1 isoform 2 (UniProt Q12959) -0.073
DDX25 (UniProt Q9UHL0) -0.071
DDAH1 (UniProt O94760) -0.092

Two records picked at random from the list so far:
log2 fold change, inactive:
DNAJA2 (UniProt O60884) -0.079
DHX9 (UniProt Q08211) -0.146
